Data taken from article PMC12431657, “Discovery and mechanistic insights of dibenzoylmethane as a broad spectrum inhibitor of coronavirus” (PLOS Pathogens, 2025).
Structures can show the parent of a compound that is named as a salt. Where two headings read alike, the source gives them in different places. Screen size: about 3,300 compounds; about 60 (2%) showed an effect of 50% or more. The list shows a part of the results.

Tested on: HCoV-OC43
Design: species or system RD; HTS, protection from HCoV-OC43 induced cell death, luminescent cell viability (CellCounting-Lite 2.0), inhibition rate
Conditions: 24 h post infection, 1 h compound pre-incubation, 10 µM, inhibitor

Compound	OC43 Inhibition rate	OC43 Inhibition rate (OC43 Inhibition rate, 24 h)
O=C(O)c1cc(O)c2c(c1)[C@H]([C@H]1c3cccc(O)c3C(=O)c3c(O)cc(C(=O)O)cc31)c1cccc(O)c1C2=O [Sennidin B]	8.5%	–
CC(=O)O[C@H]([C@@H](O)C[C@@H](C)C1=C2C[C@H](O)[C@H]3[C@@]4(C)CCC(=O)C(C)(C)[C@@H]4CC[C@]3(C)[C@@]2(C)CC1)C(C)(C)O [Alisol A 24-acetate]	-1.3%	–
O=C(O)c1ccncc1 [Isonicotinic acid]	-0.2%	–
O=CCc1ccccc1 [2-Phenylacetaldehyde]	-1.2%	–
COc1ccc([C@@H]2CC(=O)c3c(O)cc(O[C@@H]4O[C@H](CO)[C@@H](O)[C@H](O)[C@H]4O)cc3O2)cc1O [Hesperetin 7-O-glucoside]	3%	–
O=C(O[C@@H]1O[C@@H]2COC(=O)c3cc(O)c(O)c(O)c3-c3c(cc(O)c(O)c3O)C(=O)O[C@H]([C@H]1O)[C@@H]2O)c1cc(O)c(O)c(O)c1 [Corilagin]	0.2%	–
COc1ccc(C[C@H](N)C(=O)N[C@H]2[C@@H](O)[C@H](n3cnc4c(N(C)C)ncnc43)O[C@@H]2CO)cc1 [Puromycin (dihydrochloride)]	6.9%	–
COc1ccc(CC(=O)O)cc1O [Isohomovanillic acid]	0%	–
CC1=CC(=O)c2c(O)cccc2C1=O [Plumbagin]	-3.8%	–
O=C(OC[C@H]1O[C@@H](Oc2c(-c3ccc(O)c(O)c3)oc3cc(O)cc(O)c3c2=O)[C@H](O)[C@@H](O)[C@H]1O)c1cc(O)c(O)c(O)c1 [Quercetin 3-O-(6''-galloyl)-β-D-galactopyranoside]	0.1%	–
C/C=C(\C)C(=O)O [Tiglic acid]	0.1%	–
COc1cc(C[C@@H](CO[C@@H]2O[C@H](CO)[C@@H](O)[C@H](O)[C@H]2O)[C@H](CO[C@@H]2O[C@H](CO)[C@@H](O)[C@H](O)[C@H]2O)Cc2ccc(O)c(OC)c2)ccc1O [Secoisolariciresinol diglucoside]	–	-4.6%
CC(C)=CCOc1c2occc2cc2ccc(=O)oc12 [Imperatorin]	3.3%	–
CC(C)C(O)C(=O)O (centres unmarked) [2-Hydroxy-3-methylbutanoic acid]	-1.8%	–
NC1CCSC1=O (racemic) [DL-Homocysteine thiolactone (hydrochloride)]	-0.3%	–
N[C@H](CCSSCC[C@@H](N)C(=O)O)C(=O)O (racemic) [DL-Homocystine]	-2.7%	–
CCCCCCCCCCCCCCOC(C)=O [Tetradecyl acetate]	-0.7%	–
OCCCO [1,3-Propanediol]	25.1%	–
CN[C@@H]1[C@@H](O)[C@@H](O[C@@H]2[C@@H](O)[C@H](O[C@H]3OC(CN)=CC[C@H]3N)[C@@H](N)C[C@H]2N)OC[C@]1(C)O [Sisomicin (sulfate)]	8.9%	–

Some of the entries above, set out differently:
Compound | OC43 Inhibition rate | OC43 Inhibition rate (OC43 Inhibition rate, 24 h)
N[C@H](CCSSCC[C@@H](N)C(=O)O)C(=O)O (racemic) [DL-Homocystine] | -2.7% | –
CCCCCCCCCCCCCCOC(C)=O [Tetradecyl acetate] | -0.7% | –
OCCCO [1,3-Propanediol] | 25.1% | –

Following part:

Compound	OC43 Inhibition rate	OC43 Inhibition rate (OC43 Inhibition rate, 24 h)
CCC(=O)OC(CC(=O)[O-])C[N+](C)(C)C (centres unmarked) [Propionylcarnitine]	0%	–
C[C@H](CC[C@@H](O)C(C)(C)O)[C@H]1CC[C@@]2(C)[C@@H]3CC=C4[C@@H](CC[C@H](O[C@@H]5O[C@H](CO[C@@H]6O[C@H](CO)[C@@H](O)[C@H](O)[C@H]6O)[C@@H](O)[C@H](O)[C@H]5O)C4(C)C)[C@]3(C)[C@H](O)C[C@]12C [Mogroside II-A2]	20.1%	–
Cc1cn([C@@H]2O[C@H](CO)[C@@H](O)[C@H]2O)c(=O)[nH]c1=O [5-Methyluridine]	-0.4%	–
COc1cc(C(=O)OCCCCNC(=N)N)cc(OC)c1O [Leonurine (hydrochloride)]	–	-0.1%
O=C(C[C@H]1NCCC[C@@H]1O)Cn1cnc2cc(Br)c(Cl)cc2c1=O (racemic) [Halofuginone (hydrobromide)]	–	-8.1%
C=C1CC[C@@H]2[C@](C)(CO[C@@H]3O[C@H](CO)[C@@H](O)[C@H](O)[C@H]3O)CCC[C@@]2(C)[C@@H]1CCC1=CCOC1=O [Neoandrographolide]	0.3%	–
CC(C)(O)CCc1c(O)cc(O)c2c(=O)c(O)c(-c3ccc(O)cc3)oc12 [Noricaritin]	0.9%	–
COc1cc2c(cc1O)CC[C@@H]1[C@@H]2CC[C@]2(C)C(=O)CC[C@@H]12 [2-Methoxyestrone]	5.2%	–
OCCc1ccc(O)c(O)c1 [Hydroxytyrosol]	6.7%	–
NC(=O)NC(CC(=O)O)C(=O)O (racemic) [N-Carbamoyl-DL-aspartic acid]	-3.4%	–
OC[C@H]1O[C@H](OC[C@H]2O[C@H](O[C@]3(CO)O[C@H](CO)[C@@H](O)[C@@H]3O)[C@H](O)[C@@H](O)[C@@H]2O)[C@H](O)[C@@H](O)[C@H]1O [Raffinose]	-0.3%	–
C[C@@H]1CC[C@]2(C(=O)O)CC[C@]3(C)C(=CC[C@@H]4[C@@]5(C)C[C@@H](O)[C@@H](O)C(C)(C)[C@@H]5CC[C@]43C)[C@@H]2[C@]1(C)O [Euscaphic acid]	-1.5%	–
O=C(O)c1cc(=O)cc(C(=O)O)o1 [Chelidonic acid]	0.7%	–
O=C(/C=C/c1ccc(O)c(O)c1)OC[C@@H](O)CO[C@@H]1O[C@H](CO)[C@@H](O)[C@H](O)[C@H]1O [Regaloside C]	-0.3%	–
C[N+](C)(C)C[C@H](O)CC(=O)[O-] [L-Carnitine (hydrochloride)]	–	-0.9%
COc1cc(CCC(O)CC(O)CCc2ccc(O)c(OC)c2)ccc1O (centres unmarked) [Octahydrocurcumin]	1.7%	–
O=C(/C=C/c1ccc(O)cc1)NCCc1ccc(O)cc1 [N-p-trans-Coumaroyltyramine]	1.2%	–
COc1c(O)cc2c(c1O)C(=O)c1c(cc(C)c(O)c1OC)C2=O [Aurantio-obtusin]	1.4%	–
Cc1cc(=O)c2c(O)c3c(cc2o1)OC(C)(C)[C@@H](O[C@@H]1O[C@H](CO)[C@@H](O)[C@H](O)[C@H]1O)C3 [Sec-O-Glucosylhamaudol]	-0.4%	–
